The nature of one data set: peptide synthesis. The conditions noted are these: perchlorate.
The nature of data set [1]: Fmoc solid-phase peptide synthesis; Wang resin; dicyclohexylcarbodiimide/HOObt with N-ethylmorpholine (segment couplings in solu). The conditions noted are these: whole synthesis, scale 100 mg peptide-resin sample cleaved, perchlorate.

As for “H-Thr(Bu^t)-Ser(Bu^t)-Glu(OBu^t)-Leu-Ser(Bu^t)-Arg(HClO4)-Leu -Arg(HClO4)-Asp(OBu^t)-Ser(Bu^t)-Ala-Arg(HClO4)-Leu-Gln -Arg(HClO4)-Leu-Leu-Gln-Gly-Leu-Val-NH2. HClO4”, the step yield in “peptide synthesis” (late stage modification step) was 97%.
“H-Arg(HClO4)-Leu-Leu-Gln-Gly-Leu-Val-NH2 HClO4”: the step yield in the data set “peptide synthesis” (late stage modification step) was 92%.
Regarding “Z-Arg(Z2)-Asp(OBu^t)-Ser(Bu^t)-Ala-Arg(HClO4)-Leu-Gln-Arg(HClO4)-Leu-Leu-Gln-Gly-Leu-Val-NH2”, in the data set “peptide synthesis” (coupling step), the step yield stood at 99%.
The substance “Boc-His-Ser(Bu^t)-Asp(OBu^t)-Gly-Thr(Bu^t)-Phe-secretin(7-27) protected perchlorate” came in with a step yield in “peptide synthesis” (coupling step, corrected for peptide content about 80%) of 83% yield.
Regarding “H-Arg(HClO4)-Leu-Gln-Arg(HClO4)-Leu-Leu-Gln-Gly-Leu-Val-NH2.HClO4”, the step yield in “peptide synthesis” (late stage modification step, overall) was found to be 72%.
“Z-Arg(Z2)-Leu-Gln-Arg(HClO4)-Leu-Leu-Gln-Gly-Leu-Val-NH2” came in with a step yield in “peptide synthesis” (coupling step) of 92%.
For Asn-Ser-Phe-Arg-Tyr, in data set [1], the crude mass was 23.8 mg.

These data come from patent US4755591 (dated 1988).
